Laboratory results as given in patent US20050165089A1, “Compounds, compositions and methods” (priority 2003, published 2005).
Some results were stated once for a whole list of compounds, not compound by compound.

System: human ovarian tumor cell lines (SKOV-3)
Test: Inhibition of cellular proliferation in tumor cell lines (MTS, 48 hours, GI50)
Type: cell-based

Structure (SMILES)	inhibition of cell proliferation
CC(C)C(c1oc2cc(Cl)ccc2c(=O)c1Cc1ccccc1)N1CCNCCC1=O (centres unmarked) [Example 3, 4-{1-[7-Chloro-4-oxo-3-(phenylmethyl)-4H-chromen-2-yl]-2-methylpropyl}hexahydro-5H-1,4-diazepin-5-one]	inhibited cell proliferation
CC(C)C(c1oc2nc(Cl)ccc2c(=O)c1Cc1ccccc1)N1CCNCCC1=O (centres unmarked) [Example 4, 7-Chloro-2-[2-methyl-1-(7-oxohexahydro-1H-1,4-diazepin-1-yl)propyl]-3-(phenylmethyl)-4H-pyrano[2,3-b]pyridin-4-one]	inhibited cell proliferation
